In the test the target is wild type octameric enolase from S. pyogenes (S. pyogenes) (UniProt P69949). Nature of the test: AUC; sedimentation velocity, 15°C; 2.7 µM enolase incubated 18 h at 15°C in TME with NaClO4 (up to 0.4 M); octamer to monomers; both purified.

By UniProt entry, the sequences of proteins in these tests, tags left out.
UniProt P69949: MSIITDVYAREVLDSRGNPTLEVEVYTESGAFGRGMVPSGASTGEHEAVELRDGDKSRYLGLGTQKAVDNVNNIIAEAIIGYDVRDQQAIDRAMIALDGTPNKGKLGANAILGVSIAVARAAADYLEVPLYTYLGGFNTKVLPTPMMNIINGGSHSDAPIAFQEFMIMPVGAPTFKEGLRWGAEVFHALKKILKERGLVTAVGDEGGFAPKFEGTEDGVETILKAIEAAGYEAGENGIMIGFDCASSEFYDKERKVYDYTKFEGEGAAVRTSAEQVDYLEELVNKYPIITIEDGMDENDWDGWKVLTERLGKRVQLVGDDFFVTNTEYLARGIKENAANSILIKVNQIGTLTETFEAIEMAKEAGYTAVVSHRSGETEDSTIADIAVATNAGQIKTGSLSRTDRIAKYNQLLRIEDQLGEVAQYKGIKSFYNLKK

No constants are given. Whether binding was seen depends on the method and setting.

Regarding “wild type octameric enolase from S. pyogenes (from UniProt P69949 1-435) (enzyme)”, the binding entry is given as “no binding (condition: with 0.4 M NaClO4)”.

Source of the values: article PMC2809091.
